We go through 38 compounds from PubChem BioAssay AID2685 (National Center for Advancing Translational Sciences (NCATS), 2010).

Some of the results follow. These are further read-outs of the screen, such as a control signal, another cell line or another target. No call is given for them. Most of these compounds were active or inconclusive in the main read-out, so they are no random draw. Words in brackets tell the shape of the fitted curve; partial curves, single points and poor fits give uncertain potencies.

The test can be described thus: qHTS Assay for Lipid Storage Modulators in Drosophila S3 Cells.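 On cell number change: cells counted by Cell Tracker Red CMTPX staining in the red channel.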 As to conditions: BODIPY lipid droplet fluorescence, 18-24 h; for cell number change: measured here: cell count max response, cells fed with added oleic acid. In outline: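 Drosophila S3 cells got compounds at several concentrations plus oleic acid (400 uM solution). Laser-scanning cytometry with 488 nm excitation read lipid droplets at 500-530 nm and cells at 575-640 nm. Percent activity was relative to 20 uM Triacsin C.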

Setting [1] is: measured here: cell number channel AC50, cells fed with added oleic acid.
Where [2] appears, read: measured here: lipid fluorescence (Fed channel) AC50, cells fed with added oleic acid.

Turning to `CCCCOc1ccc(CNC(=O)NS(=O)(=O)c2ccc(OCC)cc2)cc1`, the cell number change was found to be 17.2%.

In the case of `Fc1ccc(-c2c[nH]c(=S)n2Cc2ccccc2)cc1`, the cell number change was -17.1%. For the same compound, under setting [1], the AC50 was 0.731 µM [falling, single point].

With `O=C1C2C(C(=O)N1/N=C/c1ccc([N+](=O)[O-])o1)C1C=CC2C12CC2` (stereo not given), the cell number change was -22.7%. Further, the AC50 under setting [2] is 11.6 µM [falling, partial curve, poor fit].

Consider `O=C(COC(=O)CCc1c[nH]c(=O)[nH]1)Nc1cccc(Cl)c1`, for which the cell number change is -82.5%. The AC50 under setting [1] is 1.84 µM [falling, full curve]. The AC50 under setting [2] is 1.84 µM [falling, full curve].

As to `CCOc1ccc(-c2nnn(CC(=O)NCc3ccc(F)cc3)n2)cc1OCC`, the cell number change is 9.81%. The concentration at half-maximal activity (AC50) under setting [2] is 3.26 µM [rising, partial curve].

Turning to `CCCCCC/C(C=O)=C\c1ccccc1`, the cell number change was -41.8%. Under setting [1], the AC50 was 29.1 µM [falling, single point].

As for `Cc1cccc(NC(=O)Nc2ccccn2)c1C`, the cell number change came to 24%. Moreover, the AC50 under setting [1] is 0.103 µM [rising, full curve, poor fit]. For the same compound, the AC50 under setting [2] was 0.92 µM [rising, full curve, poor fit].

`CN(C)C(=O)c1nnc(Cc2ccc(Cl)cc2)o1`: the cell number change is -0.308%. The AC50 under setting [2] is 0.00461 µM [rising, full curve, poor fit].

Take `COc1ccccc1-n1cc(C(=O)NCC(=O)N2CCN(c3ccccn3)CC2)c2ccccc2c1=O`: the cell number change was 12.6%. The AC50 under setting [1] was 1.46 µM [rising, partial curve, poor fit].

Turning to `CCN1C(=O)C(=O)N(CC(=O)Nc2cc(C)ccc2C)C1=O`, the cell number change is -22.4%. Also, under setting [2], the AC50 is 16.4 µM [falling, partial curve, poor fit].

As to `COCc1cc(/C=N\NC(=O)COc2ccccc2)ccc1OC`, the AC50 under setting [2] is 2.59 µM [rising, single point].

As for `COc1cccc(/C=N/NC(=O)C(=O)N2CCCCCC2)c1OC`, the cell number change was determined as 20.8%. In addition, the AC50 under setting [2] was 29.1 µM [rising, single point].

`Cc1ccccc1NC(=O)c1snc2c(=O)[nH]cnc12`: the cell number change turned out to be 26.3%.

Regarding `CCn1c(C)nc2cc(C(=O)NNC(=S)Nc3ccc(Cl)cc3Cl)ccc21`, the cell number change is -0.145%. Also, under setting [1], the AC50 was 0.146 µM [falling, full curve, poor fit]. Further, the AC50 under setting [2] was 0.116 µM [falling, full curve, poor fit].

With `CCC(=O)Nn1cnc2c(c1=O)C1(CCCCC1)Cc1ccccc1-2`, the cell number change came out at 56.5%. Moreover, the AC50 under setting [1] was 9.2 µM [rising, partial curve]. Also, the AC50 under setting [2] was 4.11 µM [rising, partial curve].

As to `COc1ccc(CN=C(Nc2ccccc2)SC2CC(=O)N(C)C2=O)cc1` (stereo not given), the cell number change came to 32.5%. The AC50 under setting [1] was 5.8 µM [rising, partial curve].

Consider `Cc1cc(C)cc(NC(=O)Nc2cc(S(=O)(=O)N(C)C)ccc2C)c1`, for which the cell number change was -18.2%. Further, the AC50 under setting [2] is 32.6 µM [falling, single point].

Consider `CC(C)CC(=O)NC(=S)Nc1ccc(N2CCOCC2)cc1`, for which the cell number change was -6.94%. Under setting [2], the AC50 was 0.13 µM [falling, full curve, poor fit].

Take `C/C(=N\NC(=S)NC1CCCCC1)c1ccc(C)o1`: the cell number change came out at 35.7%. Also, under setting [1], the AC50 is 0.00461 µM [rising, full curve, poor fit]. For the same compound, the AC50 under setting [2] was 6.51 µM [falling, partial curve, poor fit].

Regarding `COc1ccc(-c2[nH]ncc2CN(C)CC2CCCCO2)cc1F` (stereo not given), the cell number change amounted to 9.19%.

On to `COc1cccc(C(=O)NC(=S)Nc2ccc(N(C)C)cc2)c1`, for which, under setting [2], the AC50 is 18.4 µM [rising, single point].

As to `CON(C)c1nc(NCC(C)C)nc(OCC#N)n1`, the cell number change came to 17.7%. Also, under setting [2], the AC50 was 14.6 µM [rising, partial curve].

`CCn1c(SCC(=O)Nc2cc(C)on2)nnc1-c1ccc(C)cc1`: the cell number change is 5.26%. Besides, the AC50 under setting [2] is 5.62 µM [falling, single point].

`Cc1nn(C(C)(C)C)c(OC(=O)c2cccs2)c1Sc1ccccc1`: the cell number change is -40.5%. For the same compound, the AC50 under setting [1] is 0.146 µM [falling, full curve, poor fit]. Further, under setting [2], the AC50 was 1.3 µM [falling, full curve].

`CN1CCN(C(=O)c2ccc(COc3ccc(Cl)cc3Cl)cc2)CC1`: the AC50 under setting [1] was 6.51 µM [rising, single point].

Regarding `Cc1ccc(CNC(=O)C2CC(=O)N(C3CCCCCCC3)C2)cc1` (stereo not given), the cell number change is -4.52%. Under setting [1], the AC50 was 5.17 µM [rising, single point]. The AC50 under setting [2] is 29.1 µM [falling, single point].

For the compound `COc1ccc(-c2csc(N(CC3CCCO3)C(=O)c3ccco3)n2)cc1` (stereo not given), the AC50 is 6.51 µM [rising, partial curve, poor fit] under setting [1] and 6.51 µM [rising, single point] under setting [2].

Take `CCOC(=O)CSc1nnc(-c2cccc(Cl)c2)n1CC`: the cell number change is -1.79%.

`Cc1ccc(S(=O)(=O)N(C)Cc2ccc(C(=O)N/N=C/c3ccc(OC(F)F)cc3)cc2)cc1`: the cell number change is 83.3%. Also, the concentration at half-maximal activity (AC50) under setting [1] is 29.1 µM [rising, partial curve, poor fit].

`CCC(=O)Nc1cc(-c2nn3c(C)nnc3s2)ccc1C`: the cell number change is -0.572%. Besides, the AC50 under setting [2] was 4.61 µM [rising, full curve, poor fit].

Turning to `CCn1c(SCC(=O)NCc2ccco2)nnc1C1CCCC1`, the cell number change was found to be 3.87%. Further, the AC50 under setting [2] is 29.1 µM [rising, single point].

On to `O=C1c2ccccc2C(=O)N1CCC(c1ccc(F)cc1)c1ccco1` (stereo not given), for which the cell number change turned out to be 71.2%. Moreover, the AC50 under setting [1] was 23.1 µM [rising, single point].

With `CCOC(=O)C1CCN(Cc2ccc(F)c(Br)c2)CC1`, the cell number change was -1.75%. In addition, under setting [2], the AC50 was 1.3 µM [rising, full curve].

As for `Cc1ccc(-c2nnc(NC(=O)c3ccco3)s2)cc1`, the cell number change was determined as 28.7%. Under setting [2], the AC50 was 18.4 µM [rising, partial curve].

Turning to `CCCn1cc(S(=O)(=O)c2ccccc2)c(=O)c2cc(OCC)ccc21`, the AC50 under setting [2] is 29.1 µM [falling, single point].

For `O=C(c1ccc2c(c1)OCO2)[C@@H]1[C@@H]2C(=O)N(C3CCCCC3)C(=O)[C@@H]2C2c3ccccc3C=CN21` (stereo not given in full), the cell number change was -10.8%. Also, under setting [2], the AC50 was 16.4 µM [falling, partial curve, poor fit].

In the case of `Cc1ccc2c(c1)c1ncn(CCC3=CCCCC3)c(=O)c1n2C`, the cell number change was 11.7%. The AC50 under setting [2] was 1.46 µM [rising, full curve].

As to `Fc1ccccc1N1CCN(c2nc3ccccc3n3nnnc23)CC1`, the cell number change is 66.8%. The AC50 under setting [1] was 5.17 µM [rising, full curve].
